The other results are listed elsewhere or left out. This data set is noisy: repeats of one test often differ as much as different tests do.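 Researchers measured free-swimming zebrafish larvae's O-bend response probability to dark flashes (naive: first five; training: remaining flashes of four 60-flash blocks; test: later 60-flash block) and OMR turning toward alternating leftward/rightward LED motion. Six treated larvae were compared to sixty 0.1% DMSO controls, with |SSMD|≥2 marking a hit.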
system: Danio rerio larvae (5 dpf, TLF); test: OMR-Perf (SSMD vs DMSO vehicle); higher = higher than vehicle (e.g. higher dark-flash O-bend response probability, or better optomotor performance); settings: 10 µM; pre-incubation: 30-90 min

SMILES | OMR-Perf
Cc1c(C(=O)Nc2ccc(N3CCC(N4CCOCC4)CC3)c(C#N)c2)cnn1-c1ccc(Cl)cc1 | -0.749
COc1cc2ncnc(-n3nc(-c4ccccn4)nc3N)c2cc1OC | -0.704
CCN(CCO)CCCOc1ccc2c(Nc3cc(CC(=O)Nc4cccc(F)c4)n[nH]3)ncnc2c1 [Barasertib (AZD1152-HQPA)] | -0.0218
NC(=O)c1cn(Cc2c(F)cccc2F)nn1 [Rufinamide] | 0.0693
O=C(NC[C@H](O)CO)c1ccncc1Nc1ccc(I)cc1F | -0.587
S=c1nc[nH]c2nc[nH]c12 [Mercaptopurine (6-MP)] | -0.243
[I-].[K+] [Potassium Iodide] | -0.608
O=C(/C=C\n1cnc(-c2cc(C(F)(F)F)cc(C(F)(F)F)c2)n1)N1CC(F)(F)C1 | -0.394
C#C[C@@]1(O)CC[C@H]2[C@@H]3CCc4cc(OC)ccc4[C@@H]3CC[C@@]21C [Mestranol] | -0.367
[NH2][Pt]([NH2])([Cl])[Cl] [Cisplatin] | -0.252
CCC(=O)OCC(=O)[C@]1(OC(=O)CC)[C@@H](C)C[C@H]2[C@@H]3CCC4=CC(=O)C=C[C@]4(C)[C@]3(F)[C@H](O)C[C@@]21C [Betamethasone Dipropionate (Diprolene)] | -0.0214
Cl.c1ccc(CN(CC2=NCCN2)c2ccccc2)cc1 [Antazoline HCl] | -0.496
CN(C)C(=O)c1ccc(S(=O)(=O)c2ccc(NC(=O)C(C)(O)C(F)(F)F)c(Cl)c2)cc1 (centres undefined) | -0.15
c1ccc2c(Oc3nc(Nc4ccc(N5CCOCC5)cc4)c4ncn(C5CCCCC5)c4n3)cccc2c1 [Purmorphamine] | -0.33
O=C(COc1ccc(C(=O)c2ccccc2)cc1)NC1CCN(Cc2ccccc2)CC1 [AdipoRon] | -0.473
C[C@@H](CN1CC(=O)NC(=O)C1)N1CC(=O)NC(=O)C1.Cl [Dexrazoxane HCl (ICRF-187, ADR-529)] | -0.075
CCOC(=O)C1=C[C@@]2(CC)CCCN3CCc4c(n1c1ccccc41)[C@@H]32 [Vinpocetine (Cavinton)] | -0.501
C[C@H](CCC(=O)O)[C@@H]1CC[C@H]2[C@@H]3C[C@H](O)[C@@H]4C[C@H](O)CC[C@]4(C)[C@@H]3CC[C@@]21C [Hyodeoxycholic acid (HDCA)] | -0.244
C#CCC(Cc1cnc2nc(N)nc(N)c2n1)c1ccc(C(=O)N[C@@H](CCC(=O)O)C(=O)O)cc1 (some centres undefined) [Pralatrexate] | -0.244
CNC(=O)c1cc(Oc2ccc(NC(=O)Nc3cc(C(C)(C)C)nn3-c3ccc4ncccc4c3)c(F)c2)ccn1 [DCC-2036 (Rebastinib)] | -0.373
CC[C@@H]1OC(=O)[C@H](C)[C@@H](O[C@H]2C[C@@](C)(OC)[C@@H](O)[C@H](C)O2)C(C)[C@@H](O[C@@H]2O[C@H](C)C[C@H](N(C)C)[C@H]2O)[C@](C)(O)C[C@@H](C)CN(C)[C@H](C)[C@@H](O)[C@]1(C)O.O.O (some centres undefined) [Azithromycin Dihydrate] | 0.185
OC[C@H]1O[C@@H](Oc2ccc(O)cc2)[C@H](O)[C@@H](O)[C@@H]1O [Arbutin] | -0.114
C#Cc1cccc(Nc2ncnc3cc4c(cc23)OCCOCCOCCO4)c1 [Icotinib] | 0.0889
O=C1C(=O)N(Cc2ccc(Cl)c(Cl)c2)c2ccccc21 [Apoptosis Activator 2] | 0.0373
Nc1cccc2c1C(=O)N(C1CCC(=O)NC1=O)C2=O (centres undefined) [Pomalidomide] | 0.0176
CC(C)NCC(O)c1cc(O)cc(O)c1.CC(C)NCC(O)c1cc(O)cc(O)c1.O=S(=O)(O)O (centres undefined) [Metaproterenol Sulfate] | -0.33
Cn1cc(-c2cnn3c(N)c(Br)c([C@@H]4CCCNC4)nc23)cn1 | 0.078
COc1ccc2c(c1)c(CC(=O)O)c(C)n2C(=O)c1ccc(Cl)cc1 [Indomethacin] | -0.349
CN(C)CC(c1ccc(O)cc1)C1(O)CCCCC1.O=C(O)CCC(=O)O (centres undefined) [Desvenlafaxine Succinate] | -0.471

Reformatted as tab-separated lines: entries from further up.
SMILES	OMR-Perf
[NH2][Pt]([NH2])([Cl])[Cl] [Cisplatin]	-0.252
c1ccc2c(Oc3nc(Nc4ccc(N5CCOCC5)cc4)c4ncn(C5CCCCC5)c4n3)cccc2c1 [Purmorphamine]	-0.33

Reference: the supplement of paper PMC10727501
